Laboratory results: PMC11014961
These are yes or no findings as the source states them, for the method shown. A result given as binding can be weak or reduced; the word gives no strength. For some of these results: Tags and fused reporters may be left off the sequences shown. For some of these results: Binding seen in cells or lysates may run through a third protein.

T1: phosphorylated H2A.X C-terminal peptide (biotin-…pQEF-OH) (Arabidopsis thaliana)
T1 sequence (peptide, biotin on the N-terminus; phosphoserine (Sp in SASpQEF)): PSKVGKNKGDIGSASQEF

B1: His-tagged full-length NBS1 (protein, UniProt Q0H8D7 1-542)
chain: MVWGLFPVDPLSGEDKYYIFSKGIYKVGRKGCDIIINKDKGVSRIHAELTFDATTVSTSRRNKSSSDTSSFVIRVKDCSKYGTFVKTDLGTKDKVHELSNKEKILQDGDVIAFGTGSAIYRLSLIPLVFYLCPSSETFKVDQPVQDAVSSIGARISPTLSEECTHVLLEPRMQVNEALINAILAKKTIILTNWVMLLAEKSICSEIPGYSQYRPSVMVEEALVDVLELNVREKCLEGFTFVLEPTDTYRFGCSFPSLLEVCGAETVTIEDISSMSQDSQFGEINRMICVIPKSAGDKFGRFKHLSLLSRVNEMDLVCAVFSGNLPSTSLIPPSVVISSSCSTDETVVADSEAEEEETTSSVHMIDATEKAETPEKPAAIVIEDSPVTILEETSNLNEFKSVNLLADTESRGHMDEKNSSDSVTIRRDRNDEAETGKSEIIYTQDLIVRDLRSTRKVQSTGGEGVVDFKRFRKGNVTCGNSFSSLIPFAKDPYKEYDSWDVTDFMKEEKKRKQMEAIAEDLFKTEKARKRGTAGSIRGFLSGS

These molecules were tested against GST-tagged SQ/DWD motifs of BCP4 (Arabidopsis thaliana) (assay: pull-down; co-purification: His6-NBS1 forms and GST fusions co-expressed in E. coli; extract in TBS, 0.1% Triton X-100, 1 mM DTT on magnetic glutathione beads, RT, 1 h; western blot with anti-His and anti-GST).

| binding | Molecule |
| --- | --- |
| binds | B1 |

The molecules below were run against GST-tagged deletion 4 of BCP4 SQ/DWD motif (Arabidopsis thaliana) in the same assay as above.

| binding | Molecule |
| --- | --- |
| binds | B1 |

What follows are molecules tested against GST-tagged SQ/DWD motifs of BCP4 (Arabidopsis thaliana) (assay: pull-down; independently purified proteins: GST-tagged proteins (5 µg) on magnetic glutathione beads, then 5 µg His6-NBS1, 90 min, RT; 20 mM Tris-HCl pH 7.5, 150 mM NaCl, 1 mM DTT, 0.1% Triton X-100; western blot with anti-His; both purified).

| binding | Molecule |
| --- | --- |
| binds | B1 |

Each molecule was assayed against T1, phosphorylated H2A.X C-terminal peptide (biotin-…pQEF-OH) (Arabidopsis thaliana) (assay: pull-down; biotinylated H2A.X peptides (25 µg) on Dynabeads MyOne Streptavidin T1; purified proteins added in 50 mM Tris-HCl pH 7.5, 150 mM NaCl, 0.05% NP-40 with PhosStop, 4 °C, 2 h; SDS-PAGE, Coomassie blue; both purified).

| binding | Molecule |
| --- | --- |
| binds | GST-tBRCT domain of BCP4, mutant BCP4M2 (Arabidopsis thaliana) (domain or fragment) |
| binds | GST-tBRCT domain of BCP4, mutant BCP4M4 (Arabidopsis thaliana) (domain or fragment) |
| no binding | GST-tagged N-terminal tBRCT domain of BCP1 (Arabidopsis thaliana) (domain or fragment) |
| binds weakly | GST-tBRCT domain of BCP4, mutant BCP4M5 (Arabidopsis thaliana) (domain or fragment) |
| binds | GST-tBRCT domain of BCP4, mutant BCP4M3 (Arabidopsis thaliana) (domain or fragment) |
| binds | N-terminally His6-tagged BCP4 (Arabidopsis thaliana) |
| no binding | GST-tagged C-terminal tBRCT domain of BCP1 (Arabidopsis thaliana) (domain or fragment) |
| binds | GST-tagged tBRCT domain of BCP4 (Arabidopsis thaliana) (domain or fragment) |
| binds | C-terminally His6-tagged BCP4 (Arabidopsis thaliana) |
| binds | GST-tBRCT domain of BCP4, mutant BCP4M1 (Arabidopsis thaliana) (domain or fragment) |
